# According to PubChem BioAssay AID504467 (National Center for Advancing Translational Sciences (NCATS), 2011):
# The campaign covered roughly 330,000 compounds. About 7,700 (2.3%) were called active. This list was built around the results that the source calls inconclusive (neither active nor inactive); the mix of calls is not that of the screen. Calls come from the whole dose curve; as a rule, active = well fitted inhibition curve with a large enough effect; inconclusive = small, poorly fitted or top-dose-only effect, or effect the other way; inactive = flat fitted curve, though single readings scatter. A potency beside an inconclusive call is a rough fit, not a confirmed value.
# Test: qHTS screen for small molecules that inhibit ELG1-dependent DNA repair in human embryonic kidney (HEK293T) cells expressing luciferase-tagged ELG1; note: nearly all actives have a fitted effect of over 55% in size
# Conditions: HEK293T ELG1-luciferase reporter, luminescence, 16 h, DNA damage induced by 5-fluorouridine; activity change, negative = inhibition: at 46.1 µM (top of the series)
# Method in brief: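 HEK293T cells expressing luciferase-tagged ELG1 (2,000/well) received 5-Fluorouridine plus compound or DMSO for 16 hr at 37 °C. Luciferase was read by ONE-Glo luminescence after 30 min at room temperature.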
# % is set by controls: 0 for no effect and ±100 for the full control effect; potency is the fitted concentration of half-maximal effect.
Structure (SMILES),"activity change, negative = inhibition",Potency
COc1ccc(CNC(=O)/C=C/c2cc([N+](=O)[O-])ccc2OC(F)F)cc1,inactive: -24.4%,
Cc1ccc(NC(=O)c2ccc(OCC3CCCO3)cc2)c(C)c1 (stereo unspecified),,"inconclusive: 18.4 µM [activator, partial curve]"
CCn1c(N2CCN(C(=O)C34CC5CC(CC(C5)C3)C4)CC2)nc2ccccc21,,"inconclusive: 23.1 µM [inhibitor, single point]"
COc1cc2c(c(O)c1OC)-c1c(cc(OC)c(OC)c1O)[C@@H](OC(=O)c1ccccc1)[C@@](C)(O)[C@@H](C)[C@@H]2OC(C)=O,,"inconclusive: 16.4 µM [activator, partial curve, poor fit]"
Cc1ccc(C(C)C)c(OCC(=O)N/N=C/c2cccn2C)c1,,active: 18.3 µM
O=C(CCS(=O)(=O)c1ccccc1)Nc1ccc(-c2nc3ccccc3s2)c(O)c1,,"inconclusive: 0.92 µM [activator, full curve]"
N#Cc1cc2c(nc1SCC(N)=O)CCCCC2,,"inconclusive: 16.4 µM [activator, partial curve]"
COC(=O)c1ccc(NC(=O)Nc2ccccc2F)cc1,,"inconclusive: 2.06 µM [activator, partial curve]"
Cc1ccc(-c2nc3ccccn3c2Nc2ccccc2)o1,inactive: 1.67%,
COc1ccc(/C=C2\CCC/C(=C\C=N\N(C)C)C2=O)cc1,inactive: 11.3%,
Cc1ccc2oc(=O)n(CCCOc3ccccc3)c2c1,,"inconclusive: 16.4 µM [activator, partial curve]"
CC(=O)Nc1ccc(N/C=C/C(=O)c2ccc(C)cc2)cc1,,"inconclusive: 6.51 µM [activator, partial curve]"
O=C(NCC1(c2ccccc2)CCCC1)c1cccc(Br)c1,inactive: -13%,
Nc1cc(=O)[nH]c(SCCSc2cc(Cl)ccc2Cl)n1,,"inconclusive: 29.1 µM [activator, single point]"
CCN1CCN(C(=O)c2ccc3c(c2)c(C)c(C)n3Cc2ccccc2)CC1,inactive: -8.77%,
Cn1c(/C=N/Nc2nc3ccccc3[nH]2)nc2ccccc21,,"inconclusive: 2.06 µM [activator, partial curve]"
Fc1cccc2sc(Nc3nc4cc5c(cc4s3)OCO5)nc12,,"inconclusive: 3.66 µM [activator, full curve]"
Cc1nnc(NC(=O)CCNC(=O)c2ccccc2Cl)s1,inactive: -7.24%,
O=C(CSc1cccc[n+]1[O-])N1CCCc2ccccc21,,"inconclusive: 16.4 µM [activator, partial curve, poor fit]"
CCOC(=O)c1[nH]c2c(c1-c1ccc(OC)cc1)C(=O)CC(c1ccc(OC)c(OC)c1)C2 (stereo unspecified),,"inconclusive: 18.4 µM [inhibitor, single point]"
Cc1ccc2c(CNCc3ccco3)cc(=O)oc2c1,,"inconclusive: 16.4 µM [activator, partial curve]"
CC[C@]12c3[nH]c4cc(CCC(=O)N(C)C)ccc4c3CCN1C(=O)[C@@H](CC(=O)NCCCN(C)C)C[C@@H]2C(=O)N1CCN(C(=O)C2CC2)CC1,,"inconclusive: 29.1 µM [activator, single point]"
CCN(CC)CCn1c(NC(=O)c2ccc(C)cc2)nc2ccccc21,,"inconclusive: 16.4 µM [activator, partial curve]"
O=C(c1ccc2n[nH]nc2c1)N1CCN(c2ccc(C(F)(F)F)cn2)CC1,inactive: -6.55%,

Structure (SMILES),"activity change, negative = inhibition",Potency
O=C(CCCc1cccs1)N1CCN(S(=O)(=O)c2ccccc2Br)CC1,,"inconclusive: 32.6 µM [inhibitor, single point]"
Oc1ccc[n+](CC(O)c2ccccc2)c1 (stereo unspecified),inactive: 4.06%,
Cc1ccc(NC(=O)CSCC(=O)N2CCN(Cc3ccc4c(c3)OCO4)CC2)cc1,inactive: 6.66%,
O=C(O)Cc1ccc(NC(=O)Nc2cccc(Cl)c2)cc1,inactive: 10.7%,
O=C(c1ccco1)N1CCN(Cc2ccc(Br)cc2)CC1,inactive: -9.07%,
N#Cc1c(-c2ccccc2)c(-c2ccccc2)nn(CC(=O)NNC(=O)Nc2ccc(Cl)cc2)c1=O,inactive: -1.02%,
c1cc(-c2noc(CC3CCCCC3)n2)ccn1,,"inconclusive: 20.6 µM [activator, single point]"
CCCS(=O)(=O)Nc1cccc(-c2cn3c(n2)SCC3)c1,inconclusive: 32.4% [activator],
Cc1cccc(N=C2NC(=O)CS2)c1,inactive: 8.2%,
Cc1c(C(=O)NCC(C)(C)N2CCOCC2)oc2ccccc12,inactive: 27.6%,
COc1ccc(Cn2nnc(C(=O)Nc3ccc4c(c3)OCCO4)c2N)cc1Br,,"inconclusive: 29.1 µM [inhibitor, single point]"
COC(=O)c1cc(S(=O)(=O)N2CCN(c3ccc(C(C)=O)cc3)CC2)c[nH]1,inactive: -3.69%,
CC(C)(C)c1n[nH]c(=S)n(N)c1=O,inactive: -7.9%,
O=C(N/N=C/c1ccc2nccnc2c1)c1ccccc1O,,"inconclusive: 2.59 µM [activator, full curve]"
Clc1cccc(CSc2nnc(-c3ccccn3)n2Cc2ccco2)c1,,"inconclusive: 29.1 µM [inhibitor, single point]"
N#Cc1cn(CCOc2ccc(F)cc2)c2ccccc12,,"inconclusive: 1.16 µM [activator, single point]"
Cc1nc(OCC(C)C)c2sc3nc4c(cc3c2n1)COC(C)(C)C4,,"inconclusive: 3.66 µM [activator, full curve]"
Cc1cccc2nc(C(=O)Nc3cc(Cl)ccc3-n3cncn3)cn12,,"inconclusive: 32.6 µM [activator, single point]"
O=C(COC(=O)c1cccc(S(=O)(=O)NCc2ccccc2)c1)c1ccc2c(c1)OCCO2,,"inconclusive: 25.9 µM [inhibitor, single point]"
CC1(C)CN(c2ccc(-c3ccnc4ncnn34)cc2)C1=O,,"inconclusive: 20.6 µM [activator, partial curve]"
COC(=O)C1=C(C)NC(=S)N(C(C)=O)C1c1ccccc1 (stereo unspecified),,"inconclusive: 23.1 µM [inhibitor, partial curve, poor fit]"
Cc1ccc2nc3c(cc(C(=O)NCCN4CCOCC4)c(=N)n3CCCN3CCOCC3)c(=O)n2c1,inactive: -0.391%,
CCOc1ccc(NC(=O)c2ccc(NC(=S)NC3CCCCC3)cc2)cc1,,"inconclusive: 20.6 µM [activator, single point]"
c1ccc(-c2nnc(N3CCN(c4ccccc4)CC3)nc2-c2ccccc2)cc1,,"inconclusive: 5.17 µM [inhibitor, full curve, poor fit]"

Structure (SMILES),"activity change, negative = inhibition",Potency
Cc1cc(=O)oc2c(C)c(OCC(=O)N3CCN(C(=O)C4COc5ccccc5O4)CC3)ccc12 (stereo unspecified),,"inconclusive: 2.06 µM [inhibitor, full curve]"
CCOC(=O)c1ccc(NC(=O)c2nc[nH]c2C(=O)N[C@@H](Cc2ccccc2)C(=O)OC(C)(C)C)cc1,,active: 23.1 µM
Cc1sc2nc(CSc3nc4ccccc4c(=O)n3CCCN3CCOCC3)[nH]c(=O)c2c1C,,"inconclusive: 10.3 µM [inhibitor, partial curve, poor fit]"
Cn1c(N/N=C2\CCCc3ccccc32)nc2c1c(=O)n(Cc1ccccc1)c(=O)n2C,inactive: -17.5%,
COc1ccc(-c2nnc(SCc3c(C)noc3C)o2)cc1,,"inconclusive: 29.1 µM [activator, single point]"
O=C(c1ccc(CNS(=O)(=O)c2cccc(Cl)c2)cc1)N1CCCC1,,"inconclusive: 9.2 µM [inhibitor, partial curve]"
O=c1oc2ccc(Cl)cc2nc1/C=C(\O)c1cccs1,,"inconclusive: 18.3 µM [activator, partial curve]"
COc1ccccc1CC(NC(C)=O)C(=O)N1CCN(C(=O)Nc2ccccc2Cl)CC1 (stereo unspecified),inactive: 4.2%,
Cc1ccc(C(CNC(=O)Nc2cccc(C)c2)N2CCN(C)CC2)cc1 (stereo unspecified),,"inconclusive: 25.9 µM [activator, single point]"
CCOC(=O)C1(Cc2cccc(OC)c2)CCN(Cc2cccc(OC)c2O)CC1,,"inconclusive: 29.1 µM [inhibitor, single point]"
Cc1ccc(/C=N\NC(=O)/C(=C\Nc2nccc(C)n2)NC(=O)c2ccccc2)cc1,inactive: 15.4%,
C=CCNc1nc(N)c([N+](=O)[O-])c(NCCO)n1,,"inconclusive: 20.6 µM [activator, single point]"
O=C(Cc1ccc([N+](=O)[O-])cc1)N/N=C/c1cccs1,inactive: -1.82%,
CC(=O)c1ccc(NC(=O)C(C)N2CCN(C/C=C/c3ccccc3)CC2)cc1 (stereo unspecified),,"inconclusive: 23.1 µM [inhibitor, partial curve, poor fit]"
COc1ccc(NC(=O)Nc2sc(NS(=O)(=O)c3ccccc3)nc2C)cc1,inactive: 11.4%,
CCC(CC)C(=O)Nc1nnc(S(=O)(=O)N2c3ccccc3CC2C)s1 (stereo unspecified),inactive: -12.1%,
COc1ccc(/C=N/Nc2cc(N3CCOCC3)ncn2)c(OC)c1,,"inconclusive: 8.2 µM [inhibitor, partial curve, poor fit]"
CC(C)OC(=O)c1ccc(NC(=O)c2cncc(Br)c2)cc1,,"inconclusive: 23.1 µM [inhibitor, single point]"
CCOC(=O)C1=C(CC)Nc2ccccc2N/C1=N\S(=O)(=O)c1cc(Br)ccc1Br,,"inconclusive: 29.1 µM [inhibitor, single point]"
COc1cccc(C(=O)N2CCN(Cc3ccccn3)CC2)c1,inactive: 10%,
O=C1NC(Cc2ccc(O)cc2)c2nc3ccccc3c(=O)n2-c2cc(Cl)ccc21 (stereo unspecified),inactive: 12.5%,
COc1ccc(-c2nn(CCC#N)cc2/C=N/O)cc1,inactive: 9.96%,
Cc1cc(/C=C2/NC(=O)NC2=O)c(C)n1-c1ccccn1,,"inconclusive: 18.4 µM [activator, partial curve]"

# Grouped by structure, the compounds so far containing a tert-butyl group (2)
Structure (SMILES),"activity change, negative = inhibition",Potency
CC(C)(C)c1n[nH]c(=S)n(N)c1=O,inactive: -7.9%,
CCOC(=O)c1ccc(NC(=O)c2nc[nH]c2C(=O)N[C@@H](Cc2ccccc2)C(=O)OC(C)(C)C)cc1,,active: 23.1 µM

# 2 entries from above in another layout:
Structure (SMILES) | activity change, negative = inhibition | Potency
CC(C)OC(=O)c1ccc(NC(=O)c2cncc(Br)c2)cc1 |  | inconclusive: 23.1 µM [inhibitor, single point]
CCOC(=O)C1=C(CC)Nc2ccccc2N/C1=N\S(=O)(=O)c1cc(Br)ccc1Br |  | inconclusive: 29.1 µM [inhibitor, single point]
